This is an account of results in publication doi:10.1101/428250.

Amino acid sequences for entries named in this document (tags omitted).
UniProt Q9UKV8: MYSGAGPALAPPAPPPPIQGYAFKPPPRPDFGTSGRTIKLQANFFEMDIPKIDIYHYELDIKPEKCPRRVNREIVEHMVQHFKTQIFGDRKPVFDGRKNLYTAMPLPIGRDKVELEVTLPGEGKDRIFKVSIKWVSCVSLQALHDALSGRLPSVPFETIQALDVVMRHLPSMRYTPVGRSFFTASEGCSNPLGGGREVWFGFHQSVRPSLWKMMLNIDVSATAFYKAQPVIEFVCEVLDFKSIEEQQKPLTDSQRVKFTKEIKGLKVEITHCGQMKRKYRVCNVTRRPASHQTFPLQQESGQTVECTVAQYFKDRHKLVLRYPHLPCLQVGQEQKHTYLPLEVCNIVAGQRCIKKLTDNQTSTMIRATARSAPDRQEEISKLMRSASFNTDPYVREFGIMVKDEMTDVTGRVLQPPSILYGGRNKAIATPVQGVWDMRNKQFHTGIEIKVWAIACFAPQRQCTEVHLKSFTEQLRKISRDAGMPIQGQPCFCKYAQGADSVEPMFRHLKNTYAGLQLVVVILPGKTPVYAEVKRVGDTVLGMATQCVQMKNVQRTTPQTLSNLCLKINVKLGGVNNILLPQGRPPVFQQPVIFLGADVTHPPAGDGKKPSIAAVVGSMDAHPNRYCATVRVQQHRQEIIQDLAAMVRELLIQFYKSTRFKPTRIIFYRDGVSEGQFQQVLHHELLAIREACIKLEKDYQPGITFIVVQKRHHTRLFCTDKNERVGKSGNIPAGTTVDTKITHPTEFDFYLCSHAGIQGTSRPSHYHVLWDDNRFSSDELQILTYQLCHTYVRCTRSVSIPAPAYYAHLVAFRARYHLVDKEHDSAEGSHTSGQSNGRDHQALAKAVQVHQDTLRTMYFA

The target of the assay is T1, eGFP-tagged human NRDE2 (human) (UniProt Q9H7Z3).
T1 sequence: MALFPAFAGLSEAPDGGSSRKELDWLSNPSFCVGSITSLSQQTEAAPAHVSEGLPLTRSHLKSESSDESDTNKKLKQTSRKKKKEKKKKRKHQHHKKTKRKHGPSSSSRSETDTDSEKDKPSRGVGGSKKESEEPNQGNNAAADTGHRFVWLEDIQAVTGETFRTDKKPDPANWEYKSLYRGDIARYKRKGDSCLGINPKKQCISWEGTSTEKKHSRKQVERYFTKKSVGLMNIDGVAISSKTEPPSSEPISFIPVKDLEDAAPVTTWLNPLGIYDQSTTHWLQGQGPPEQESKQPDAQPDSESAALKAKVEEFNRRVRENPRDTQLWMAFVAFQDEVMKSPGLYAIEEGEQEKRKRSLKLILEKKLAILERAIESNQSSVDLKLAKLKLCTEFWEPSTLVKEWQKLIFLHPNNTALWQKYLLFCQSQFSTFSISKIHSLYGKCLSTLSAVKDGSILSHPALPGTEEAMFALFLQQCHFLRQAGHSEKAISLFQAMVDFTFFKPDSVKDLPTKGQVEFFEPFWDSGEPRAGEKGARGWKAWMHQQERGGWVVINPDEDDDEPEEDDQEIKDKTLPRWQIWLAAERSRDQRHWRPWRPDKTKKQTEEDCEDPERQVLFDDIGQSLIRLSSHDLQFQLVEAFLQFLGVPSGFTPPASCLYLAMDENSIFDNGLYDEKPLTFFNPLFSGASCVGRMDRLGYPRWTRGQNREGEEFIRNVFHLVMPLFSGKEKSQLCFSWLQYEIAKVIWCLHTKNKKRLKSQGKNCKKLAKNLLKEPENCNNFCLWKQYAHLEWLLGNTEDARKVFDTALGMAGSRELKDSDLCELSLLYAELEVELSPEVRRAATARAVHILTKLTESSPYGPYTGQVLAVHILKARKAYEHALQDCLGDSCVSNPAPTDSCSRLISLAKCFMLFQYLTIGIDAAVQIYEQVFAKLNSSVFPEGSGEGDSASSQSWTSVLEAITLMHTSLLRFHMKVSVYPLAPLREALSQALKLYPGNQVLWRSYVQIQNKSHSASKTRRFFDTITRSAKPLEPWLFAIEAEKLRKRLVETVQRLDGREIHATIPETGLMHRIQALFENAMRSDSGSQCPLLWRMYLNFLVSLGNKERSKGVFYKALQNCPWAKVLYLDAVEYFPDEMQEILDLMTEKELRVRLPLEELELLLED
Put plainly: co-IP.

These are yes or no findings as the source states them, for the method shown. Binding seen in cells or lysates may run through a third protein. Where a sequence is shown, tags or fusion partners need not be part of it.

In the case of “human Argonaute Ago1 (from UniProt Q9UL18 1-857)”, the binding entry is “no binding”.

With “human Argonaute Ago2 (from UniProt Q9UKV8 1-859)”, the binding result is on record as “no binding”.

With “human Argonaute Ago3 (from UniProt Q9H9G7 1-860)”, the binding entry is given as “no binding”.
